Assay results: PubChem BioAssay AID1347423 (Functional Genomics Laboratory (NCATS/FGL), 2020)
The campaign covered roughly 52,000 sequences. About 210 (0.4%) were called active.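 How the source made its calls: active means gene whose silencing raises cell survival under the drug, median off-target-corrected z-score across its silencing RNAs 2 or more; inactive means the rest.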 Some of the results follow.

Assay: Resistance to Poly (ADP-Ribose) Polymerase inhibitor: Gene Identification via Genome-wide siRNA Screen
Conditions: mouse BRCA2 R2336H ES cells, olaparib, CellTiter-Glo viability; active compounds read high
Procedure, shortened: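 Genome-wide siRNA screen (3 siRNAs/gene, 20 nM) in mouse ES cells carrying hypomorphic BRCA2 R2336H; olaparib 500 nM added 48 h post-transfection, CellTiter-Glo viability 72 h later. Normalized to plate-median negative control; MAD z-scores, gene median, seed-adjusted.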

Row | Sequence | z-score
1 | GGUGAUGUUCUAACCCUGCTT against Trex1 | inactive: 0.738
2 | GGAACCUAAUUGAAUGGCUTT against 2310016A09Rik | inactive: 0.522
3 | GGUCAUGAGAGCAUACUGCTT against Ankrd10 | inactive: 0.967
4 | GGAGGUUUAAAUUUGAUGUTT against Adcy9 | inactive: 0.93
5 | GGGAAUAGCAAACUUAUCUTT against Nfil3 | inactive: 0.65
6 | GGAAGACAAAUGAGUUAUGTT against Sema3b | inactive: -1.01
7 | GGAAGAAAAAAUCGAUCUGTT against Myl1 | inactive: -0.553
8 | GCUAACCACCACAGUAUGATT against 0610027O18Rik | inactive: -1.3
9 | GCGUGAAUCCAAAUACAGUTT against MGC67569 | inactive: -1.37
10 | UGGCUAAACGCACCAAGAATT against Rpl37a | inactive: -3.38
11 | GGAAAGAUGUGGAAGUAAATT against Rab6ip2 | inactive: 0.47
12 | GCUUCACCGAGUCAUCAUATT against Mdc1 | inactive: -1.43
13 | GGAUAGAUACUGUACUAAUTT against Surb7 | inactive: 0.941
14 | GCGAUGUGCAUCGGAAUGCTT against Adprhl1 | inactive: 0.171
15 | GGAAUGGAAAUUCAGAGAGTT against 9830123M21Rik | inactive: 0.698
16 | GGUCAAUACUCGAGUGCCATT against Gstm3 | inactive: 0.809
17 | GGACUAGCAGUAAUAAAAGTT against Zdhhc9 | inactive: 0.926
18 | CGCAGUCGGUCAAGAACAATT against Snrpd2 | inactive: -2.7
19 | GGAAAACUCAAAGUGCUGATT against Mpra | inactive: 0.225
20 | GUGUCCUGACCAGGGUUCUTT against Gpr31c | inactive: -0.537
21 | GGAAAUCUUUAUCUGACAGTT against Cbx3 | inactive: -0.66
22 | GGCAGAGGCAAAAGAACAATT against Mrps5 | inactive: -0.414
23 | GCUACAGCAACAUAACAUGTT against Acvrinp1 | inactive: 1.42
24 | GGAAGAGAACCAAAACACATT against 6030449J21 | inactive: -1.08
25 | GGAAGUGAGGGAGAACAUCTT against Fchsd1 | inactive: -0.895
26 | GGAUGCUGUAACACUUUAUTT against Bcl6 | inactive: -1.71

Records 3 to 8, reprinted for reference:
Row | Sequence | z-score
3 | GGUCAUGAGAGCAUACUGCTT against Ankrd10 | inactive: 0.967
4 | GGAGGUUUAAAUUUGAUGUTT against Adcy9 | inactive: 0.93
5 | GGGAAUAGCAAACUUAUCUTT against Nfil3 | inactive: 0.65
6 | GGAAGACAAAUGAGUUAUGTT against Sema3b | inactive: -1.01
7 | GGAAGAAAAAAUCGAUCUGTT against Myl1 | inactive: -0.553
8 | GCUAACCACCACAGUAUGATT against 0610027O18Rik | inactive: -1.3

Shown as comma-separated lines: entries from further up
Row,Sequence,z-score
15,GGAAUGGAAAUUCAGAGAGTT against 9830123M21Rik,inactive: 0.698
16,GGUCAAUACUCGAGUGCCATT against Gstm3,inactive: 0.809

The results go on.

Row | Sequence | z-score
27 | GCCCAAUAGAAGCUGGAUGTT against 1700018L24Rik | inactive: -0.245
28 | GCCUCUUAAUGCUUUUGUATT against Sfxn1 | inactive: -0.528
29 | GGCAAGAGACAGAAUGAUATT against Ppargc1a | inactive: 1.41
30 | GGUAUUAAAGACUACUCCATT against 2900070E19Rik | inactive: 1.64
31 | GGAUGCAGCUAGAAUUUAATT against 4932438A13Rik | inactive: 0.495
32 | CCGUUUCUAUCGAGUGAAATT against B230218O03 | inactive: 0.523
33 | GCUGCCAUUUCGCCAAUCUTT against Mfap4 | inactive: 0.335
34 | GGAAAUGUGGUAAUUCCGATT against Cd44 | inactive: 0.892
35 | GGAUGAAGAUCAGAUUCAATT against Metapl1 | inactive: -0.064
36 | GGACCUGUUUGAGCAGAGGTT against Eps8l2 | inactive: -0.292
37 | GGCAUUGACCCUUCUUGGATT against Stam2 | inactive: -1.14
38 | GCUAUGGCCAUUAUUGGAGTT against LOC547343 | inactive: -0.606
39 | GGACAGUCAAACAGAGAAGTT against Unc84a | inactive: -1.73
40 | GGAGUACAUGGUACACGUUTT against Fut8 | inactive: 0.969
41 | GGCUCAAAACCACACCACUTT against Olfr477 | inactive: 0.195
42 | GGUACUGCUGUUGUCAAUGTT against Prdx3 | inactive: 0.0754
43 | CCAGUGGCCCAUUUUUUGUTT against Slc18a1 | inactive: 1.48
44 | GCACUGAACCAAUUUGCCCTT against Dsg1c | inactive: -0.603
45 | GGAGCAGUCCUAAUGAUACTT against Phf6 | inactive: -1.59
46 | GGUGGAGCGAAUCAAGGAGTT against Nedd8 | inactive: -0.792
47 | GAUUACUCCACCUAUCUCUTT against BC058638 | inactive: -1.73
48 | GCAUUUGAAUCGACUACAGTT against Vti1b | inactive: 0.572
49 | GGAUCUGUUACUCUGAUACTT against Pias4 | inactive: -0.823
50 | GGCAAUGUCUUUAAAAUACTT against Txndc8 | inactive: -0.712
51 | CAAGGAAUACACUCAGAACTT against A730008H23 | inactive: -0.314
52 | GCGAUAUGACAGACUCUUCTT against Axud1 | inactive: -0.733

Row | Sequence | z-score
53 | CCAUUCUUGCCUUUGUGCUTT against 1200008O12Rik | inactive: 0.486
54 | CCAAAGGUAUGCAGUAUGATT against Cdh4 | inactive: 1.07
55 | CCUGAACGCAGCAACAAACTT against 1700049L16Rik | inactive: -0.0682
56 | CCUGACCAAUUGAGCUUCCTT against Rusc1 | inactive: 0.302
57 | GCAAGUGCGGAAGAAAGGATT against AU041783 | inactive: -0.269
58 | CCCUUCAGCACGAUGAAAATT against 4930434E21Rik | inactive: 1.54
59 | GGUGAUUCUCAUCUAAAUGTT against Mtdh | inactive: -0.281
60 | GCACAAAUUAAAUGUUAGGTT against Zhx2 | inactive: 0.552
61 | CGGGAGUCGGAGAUUUGAATT against Kcnj12 | inactive: -0.0398
62 | GGAGGAUGGGUGUGAAUCUTT against Pycr2 | inactive: -1.85
63 | GCACACCUCUAUCCUUUUGTT against Pcsk9 | inactive: -1.87
64 | GGAUUCAAGAGAAAAGAACTT against Gltscr2 | inactive: -1.65
65 | GGACAAGUCGAAGAGUGAGTT against Ing1 | inactive: -1.7
66 | GCAUUUCAAUCGCACGUUUTT against Gal3st2 | inactive: 2.72
67 | GGUUUUGUUCAGAUCAGAUTT against Gemin6 | inactive: 0.639
68 | GCUAAGACACCGAGAGGAATT against Rassf4 | inactive: -0.885
69 | GCUAGAUAUAUUUGCCCACTT against Fin15 | inactive: 1.14
70 | GGGAUUUCUUUUUCUAGUUTT against Fgd5 | inactive: 0.224
71 | GCGUAUCAAGUUCUCUAGGTT against Nical | inactive: 0.865
72 | CCUAUAUUGGAGAGAUAUUTT against Serpinb6a | inactive: -0.341
73 | CCAGAUGAAUGUAACACGCTT against D930038D03Rik | inactive: 0.712
74 | GGGACACAACCACAAUAACTT against 1700017I11Rik | inactive: 0.406
75 | GGGCAAGUAUACCUUCAAUTT against 1700010A17Rik | inactive: -0.321
76 | GGAAGCAUCUGAUGUCAUUTT against Txndc4 | inactive: 0.117
77 | GCUGUGUACUCUGCCCUGATT against Olfr346 | inactive: -0.851
78 | GAAUUCCAGCUUAUUCCUUTT against Klra15 | inactive: 0.0764

Row | Sequence | z-score
79 | GGCAGCCAAGAGAUUGAAUTT against Suclg2 | inactive: 0.874
80 | GGUUGUUUGACCAACAGCUTT against Inpp5d | inactive: -0.0229
81 | GGUGAUAUUGUUGUACUUATT against Olfr1058 | inactive: 0.595
82 | GGAAGUGGUGGAACUCCUGTT against A930001M12Rik | inactive: -0.535
83 | GGAAAGUUUGAAGAUGUGUTT against Mknk1 | inactive: -0.888
84 | CGAUCGUAUUCAAUGGAAATT against Rims2 | inactive: 0.0642
85 | GGUCAUGCACACUCGAAAUTT against Mrpl54 | inactive: 0.673
86 | GCUUUGAUAGAUACUUCUGTT against Chrm2 | inactive: 1.47
87 | CCAGGAUUAUAGGUUUUAGTT against F830104D24Rik | inactive: 0.877
88 | GGUGGUAUGCAAGAUUACATT against Cpd | inactive: 0.113
89 | GGAAUCUGUCAUGUGAAUATT against Slc1a5 | inactive: 0.896
90 | GCGUAUCCCAGAUAUCCGATT against BC064033 | inactive: 0.0741
91 | GCAUACCUCCGUAUUGUGATT against 4732481H14Rik | inactive: -0.138
92 | GCUGAUACGAGGAACAGAGTT against Fmr1nb | inactive: -0.626
93 | GCAGAGAGGAUAACUGACCTT against B430110G05Rik | inactive: -0.961
94 | GGAGUUACGCCGAAACAGGTT against 1700049M11Rik | inactive: -1.18
95 | GGAUCCAAGUUCCUGGCUCTT against A330096I21Rik | inactive: -0.601
96 | GCCAACGUAUUUGUGGCAUTT against Olfr1183 | inactive: 0.566
97 | GGAAGACAAAGUCUGGGUGTT against Hpxn | inactive: 0.0033
98 | GCUACAGGUCAAUGUCGUGTT against Tcte2 | inactive: -0.14
99 | CGUGGCUUCUUUCCGCUCUTT against Mtmr4 | inactive: 0.604
100 | GCAUCAUUACUGGAUUCCUTT against Olfr859 | inactive: -0.826
101 | GCUUCAAUGUAUUUUUUGCTT against Olfr1459 | inactive: -1.35
102 | GGCCUGGGAAGUGAACAAATT against Faah | inactive: -1.56
103 | GGAGCUUUCCAUAUAUAAGTT against Sgcb | inactive: 1.16
104 | CCAAAGAUCGGGAAAAGGATT against LOC545475 | inactive: 1.08
